Values quoted from earlier work as cited in patent US20070259933A1, “COMPOSITIONS, DOSAGE FORMS AND METHODS OF TREATING EMESIS” (XenoPort, Inc., priority 2006, published 2007).
Read-outs that look alike come from different tables or passages of the source. At least one read-out could not be matched to a standard name with certainty.

Conditions: cited from earlier work

## O=C(O[C@@H]1C[C@@H]2C[C@H]3C[C@H](C1)N2CC3=O)c1c[nH]c2ccccc12 [dolasetron]
Oral dose of 25-200 mg dolasetron
  time to Cmax: 1.4 h

## CN1C2CCCC1CC(NC(=O)c1nn(C)c3ccccc13)C2 (stereo not shown) [granisetron]
Oral dose of 5-20 mg granisetron
  time to Cmax: 1 to 2.7 h

## Cc1nccn1CC1CCc2c(c3ccccc3n2C)C1=O (stereo not shown) [ondansetron]
Oral dose of 8 mg ondansetron
  time to Cmax: 1 to 2.2 h

## CN1[C@@H]2CC[C@H]1C[C@@H](OC(=O)c1c[nH]c3ccccc13)C2 [tropisetron]
Oral dose of 5 mg tropisetron
  time to Cmax: 2 h
